Paper PMC3814600
Results are given in words; binding and its absence hold for the method and conditions named. In cells and extracts the contact can be indirect. Some binding calls cover weakened binding; strength is not graded here.

By UniProt entry, the sequences of proteins in these tests, tags left out.
UniProt Q64FN9: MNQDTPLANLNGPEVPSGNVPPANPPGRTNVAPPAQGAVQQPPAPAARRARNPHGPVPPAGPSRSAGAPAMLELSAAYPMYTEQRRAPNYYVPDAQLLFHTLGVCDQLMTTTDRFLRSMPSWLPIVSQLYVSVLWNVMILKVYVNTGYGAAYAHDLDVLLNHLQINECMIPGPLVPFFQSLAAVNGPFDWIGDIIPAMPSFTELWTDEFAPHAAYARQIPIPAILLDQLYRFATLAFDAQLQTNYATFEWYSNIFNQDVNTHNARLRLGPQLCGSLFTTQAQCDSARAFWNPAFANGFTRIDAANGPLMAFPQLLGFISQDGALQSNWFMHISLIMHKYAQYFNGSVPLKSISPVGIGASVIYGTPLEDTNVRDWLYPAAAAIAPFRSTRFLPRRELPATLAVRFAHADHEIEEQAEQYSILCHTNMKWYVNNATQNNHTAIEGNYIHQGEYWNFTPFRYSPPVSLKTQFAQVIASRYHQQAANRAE

Target: White clover cryptic virus 1 coat protein (White clover cryptic virus 1) (UniProt Q64FN9)
Assay: split reporter

## White clover cryptic virus 1 coat protein (from UniProt Q64FN9 1-487)
  binding: binds
